The supplement of paper PMC10849652
The list shows a part of the results.

The chains behind the UniProt entries cited, without tags or fusion partners. Where a name states a change or a piece, a line headed by the entry shows the natural chain unless it says otherwise.
UniProt Q6UWP2: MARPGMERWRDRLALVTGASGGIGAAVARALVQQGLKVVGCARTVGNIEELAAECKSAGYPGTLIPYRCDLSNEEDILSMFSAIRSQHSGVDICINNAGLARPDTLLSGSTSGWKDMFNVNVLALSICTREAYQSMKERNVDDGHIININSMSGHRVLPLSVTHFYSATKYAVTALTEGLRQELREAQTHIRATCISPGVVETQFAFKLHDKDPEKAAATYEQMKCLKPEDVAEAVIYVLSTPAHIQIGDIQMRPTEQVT
UniProt Q6IAN0: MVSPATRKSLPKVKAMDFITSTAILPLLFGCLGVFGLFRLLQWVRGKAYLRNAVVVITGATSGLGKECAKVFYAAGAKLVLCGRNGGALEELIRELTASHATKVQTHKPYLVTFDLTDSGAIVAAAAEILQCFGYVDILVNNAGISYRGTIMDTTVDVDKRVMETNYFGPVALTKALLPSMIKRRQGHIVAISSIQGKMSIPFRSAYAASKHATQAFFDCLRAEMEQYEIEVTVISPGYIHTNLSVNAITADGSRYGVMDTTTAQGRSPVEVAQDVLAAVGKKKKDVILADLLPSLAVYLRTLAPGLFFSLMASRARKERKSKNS
UniProt Q96DA6: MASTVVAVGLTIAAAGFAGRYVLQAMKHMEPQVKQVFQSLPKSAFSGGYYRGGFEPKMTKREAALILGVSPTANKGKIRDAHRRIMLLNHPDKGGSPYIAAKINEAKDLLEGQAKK
UniProt P23743: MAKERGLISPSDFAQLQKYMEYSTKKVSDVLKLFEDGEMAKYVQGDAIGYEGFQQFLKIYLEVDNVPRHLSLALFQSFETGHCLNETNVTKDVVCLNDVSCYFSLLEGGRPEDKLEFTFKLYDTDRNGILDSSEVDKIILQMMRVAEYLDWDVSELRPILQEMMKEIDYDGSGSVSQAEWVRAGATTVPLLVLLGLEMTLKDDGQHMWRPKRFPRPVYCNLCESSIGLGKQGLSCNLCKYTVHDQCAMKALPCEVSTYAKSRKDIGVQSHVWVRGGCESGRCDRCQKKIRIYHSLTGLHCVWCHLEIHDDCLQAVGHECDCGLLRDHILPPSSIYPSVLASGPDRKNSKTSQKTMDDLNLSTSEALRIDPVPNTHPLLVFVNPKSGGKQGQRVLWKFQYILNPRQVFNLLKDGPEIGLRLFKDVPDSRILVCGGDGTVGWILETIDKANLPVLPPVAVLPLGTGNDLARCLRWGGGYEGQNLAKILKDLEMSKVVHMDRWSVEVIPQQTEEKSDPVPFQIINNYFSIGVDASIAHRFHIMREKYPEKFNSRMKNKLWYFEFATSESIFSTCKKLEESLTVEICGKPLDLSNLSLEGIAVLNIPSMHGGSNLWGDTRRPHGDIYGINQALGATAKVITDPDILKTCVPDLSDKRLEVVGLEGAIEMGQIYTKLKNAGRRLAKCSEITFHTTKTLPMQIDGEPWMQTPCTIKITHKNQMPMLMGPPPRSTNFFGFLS
UniProt P09622, whole entry, looked up: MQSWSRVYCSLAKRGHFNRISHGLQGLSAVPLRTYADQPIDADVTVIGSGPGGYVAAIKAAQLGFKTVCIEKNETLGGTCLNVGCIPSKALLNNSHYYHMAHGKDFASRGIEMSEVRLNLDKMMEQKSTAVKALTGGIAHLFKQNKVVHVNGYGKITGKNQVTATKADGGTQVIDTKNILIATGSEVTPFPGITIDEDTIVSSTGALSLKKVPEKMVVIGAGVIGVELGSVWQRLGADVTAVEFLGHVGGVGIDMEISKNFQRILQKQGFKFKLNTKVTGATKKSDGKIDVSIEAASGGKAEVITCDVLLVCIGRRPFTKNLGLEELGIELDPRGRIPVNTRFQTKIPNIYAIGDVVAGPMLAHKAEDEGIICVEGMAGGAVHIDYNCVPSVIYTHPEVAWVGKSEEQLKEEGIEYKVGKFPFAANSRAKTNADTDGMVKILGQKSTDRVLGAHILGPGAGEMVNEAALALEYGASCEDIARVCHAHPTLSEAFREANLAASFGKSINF
UniProt Q05193: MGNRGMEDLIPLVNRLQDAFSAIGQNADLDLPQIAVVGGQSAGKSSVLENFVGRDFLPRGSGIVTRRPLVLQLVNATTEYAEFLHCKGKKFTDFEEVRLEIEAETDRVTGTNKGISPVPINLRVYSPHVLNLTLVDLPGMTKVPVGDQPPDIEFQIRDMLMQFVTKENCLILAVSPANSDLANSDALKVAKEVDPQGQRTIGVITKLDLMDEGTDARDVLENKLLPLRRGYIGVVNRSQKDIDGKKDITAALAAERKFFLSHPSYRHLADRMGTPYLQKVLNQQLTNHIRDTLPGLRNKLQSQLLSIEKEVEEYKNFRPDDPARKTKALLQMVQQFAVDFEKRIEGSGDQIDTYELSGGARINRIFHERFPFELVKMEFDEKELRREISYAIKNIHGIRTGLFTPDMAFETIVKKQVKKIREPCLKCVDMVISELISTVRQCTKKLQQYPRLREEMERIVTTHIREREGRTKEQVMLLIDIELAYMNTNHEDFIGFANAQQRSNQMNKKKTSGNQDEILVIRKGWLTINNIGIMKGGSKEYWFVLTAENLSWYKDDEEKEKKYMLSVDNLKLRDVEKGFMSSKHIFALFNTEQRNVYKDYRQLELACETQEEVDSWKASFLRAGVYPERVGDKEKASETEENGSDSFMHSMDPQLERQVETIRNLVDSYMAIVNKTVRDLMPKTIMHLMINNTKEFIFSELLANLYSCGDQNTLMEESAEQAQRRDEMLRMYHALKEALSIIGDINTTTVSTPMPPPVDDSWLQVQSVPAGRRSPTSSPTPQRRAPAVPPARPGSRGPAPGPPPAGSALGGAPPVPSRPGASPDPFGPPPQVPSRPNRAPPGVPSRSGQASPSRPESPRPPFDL
UniProt Q9UBS3: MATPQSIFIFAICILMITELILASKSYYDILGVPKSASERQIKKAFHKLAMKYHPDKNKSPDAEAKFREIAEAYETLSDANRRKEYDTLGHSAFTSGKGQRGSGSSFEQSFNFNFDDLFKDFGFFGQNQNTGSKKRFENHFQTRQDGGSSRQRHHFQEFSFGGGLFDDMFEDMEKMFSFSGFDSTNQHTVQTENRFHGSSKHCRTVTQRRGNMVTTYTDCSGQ
UniProt Q9H6R0: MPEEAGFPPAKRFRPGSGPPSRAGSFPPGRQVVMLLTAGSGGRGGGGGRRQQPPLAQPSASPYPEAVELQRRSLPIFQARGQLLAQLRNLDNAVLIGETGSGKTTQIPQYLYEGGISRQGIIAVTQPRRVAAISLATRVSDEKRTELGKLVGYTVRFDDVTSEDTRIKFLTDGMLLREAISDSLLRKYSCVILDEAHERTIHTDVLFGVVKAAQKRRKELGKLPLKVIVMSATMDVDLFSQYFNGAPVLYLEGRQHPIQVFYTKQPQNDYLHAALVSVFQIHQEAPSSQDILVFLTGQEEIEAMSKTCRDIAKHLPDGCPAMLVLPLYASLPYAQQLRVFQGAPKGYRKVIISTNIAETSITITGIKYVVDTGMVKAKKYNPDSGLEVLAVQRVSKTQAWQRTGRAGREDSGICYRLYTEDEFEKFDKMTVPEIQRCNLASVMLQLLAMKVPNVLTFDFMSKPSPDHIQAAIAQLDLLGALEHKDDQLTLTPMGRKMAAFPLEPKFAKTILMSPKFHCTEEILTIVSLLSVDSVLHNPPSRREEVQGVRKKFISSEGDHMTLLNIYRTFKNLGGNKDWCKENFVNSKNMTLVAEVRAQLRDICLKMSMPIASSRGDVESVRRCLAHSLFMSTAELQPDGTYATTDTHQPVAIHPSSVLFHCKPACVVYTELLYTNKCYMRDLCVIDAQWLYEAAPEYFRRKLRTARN
UniProt P52824: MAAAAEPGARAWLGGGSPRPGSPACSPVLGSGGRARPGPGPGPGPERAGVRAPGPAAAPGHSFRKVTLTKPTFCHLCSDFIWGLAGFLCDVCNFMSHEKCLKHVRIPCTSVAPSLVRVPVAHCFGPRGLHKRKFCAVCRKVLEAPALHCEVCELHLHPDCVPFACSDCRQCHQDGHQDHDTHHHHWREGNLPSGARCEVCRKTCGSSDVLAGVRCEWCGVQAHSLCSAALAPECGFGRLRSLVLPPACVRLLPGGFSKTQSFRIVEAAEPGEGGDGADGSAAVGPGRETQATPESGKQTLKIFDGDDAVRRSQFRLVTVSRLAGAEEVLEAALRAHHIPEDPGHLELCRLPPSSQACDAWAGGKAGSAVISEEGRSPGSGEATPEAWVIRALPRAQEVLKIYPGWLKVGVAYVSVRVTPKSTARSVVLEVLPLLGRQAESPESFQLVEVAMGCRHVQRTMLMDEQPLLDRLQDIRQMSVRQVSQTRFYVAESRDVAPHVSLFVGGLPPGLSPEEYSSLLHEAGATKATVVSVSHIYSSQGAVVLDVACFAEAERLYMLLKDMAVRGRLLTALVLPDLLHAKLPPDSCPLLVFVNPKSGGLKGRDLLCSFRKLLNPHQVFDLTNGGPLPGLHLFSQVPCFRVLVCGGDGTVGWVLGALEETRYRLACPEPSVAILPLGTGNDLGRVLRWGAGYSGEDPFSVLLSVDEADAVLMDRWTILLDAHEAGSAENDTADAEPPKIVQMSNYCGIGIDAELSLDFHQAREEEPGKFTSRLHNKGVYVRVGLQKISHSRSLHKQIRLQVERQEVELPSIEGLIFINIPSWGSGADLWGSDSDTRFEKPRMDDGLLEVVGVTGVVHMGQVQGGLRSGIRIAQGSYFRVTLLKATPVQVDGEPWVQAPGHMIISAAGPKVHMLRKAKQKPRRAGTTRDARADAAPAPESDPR
UniProt P49184: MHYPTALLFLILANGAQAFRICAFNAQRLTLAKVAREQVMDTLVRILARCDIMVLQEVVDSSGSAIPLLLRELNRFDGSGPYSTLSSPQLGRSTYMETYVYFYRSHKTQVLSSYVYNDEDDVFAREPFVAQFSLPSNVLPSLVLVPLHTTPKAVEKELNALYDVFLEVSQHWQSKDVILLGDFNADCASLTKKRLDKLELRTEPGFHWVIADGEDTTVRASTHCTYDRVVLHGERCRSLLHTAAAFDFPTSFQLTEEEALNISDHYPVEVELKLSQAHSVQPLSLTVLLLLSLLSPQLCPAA
UniProt P98153: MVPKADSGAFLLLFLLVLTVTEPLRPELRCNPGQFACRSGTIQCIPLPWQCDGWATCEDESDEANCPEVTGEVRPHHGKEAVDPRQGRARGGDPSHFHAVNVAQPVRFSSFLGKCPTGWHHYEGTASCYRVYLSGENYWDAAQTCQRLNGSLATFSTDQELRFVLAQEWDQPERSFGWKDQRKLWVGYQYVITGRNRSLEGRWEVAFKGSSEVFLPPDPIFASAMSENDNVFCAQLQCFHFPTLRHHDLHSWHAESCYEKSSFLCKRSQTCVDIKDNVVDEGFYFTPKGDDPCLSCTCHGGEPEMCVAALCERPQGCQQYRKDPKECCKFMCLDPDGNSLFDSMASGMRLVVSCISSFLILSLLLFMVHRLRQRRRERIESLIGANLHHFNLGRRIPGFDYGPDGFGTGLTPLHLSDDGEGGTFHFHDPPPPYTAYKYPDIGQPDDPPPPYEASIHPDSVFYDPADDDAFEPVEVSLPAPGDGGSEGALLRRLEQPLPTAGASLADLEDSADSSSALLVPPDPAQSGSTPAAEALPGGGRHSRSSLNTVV
UniProt Q99615: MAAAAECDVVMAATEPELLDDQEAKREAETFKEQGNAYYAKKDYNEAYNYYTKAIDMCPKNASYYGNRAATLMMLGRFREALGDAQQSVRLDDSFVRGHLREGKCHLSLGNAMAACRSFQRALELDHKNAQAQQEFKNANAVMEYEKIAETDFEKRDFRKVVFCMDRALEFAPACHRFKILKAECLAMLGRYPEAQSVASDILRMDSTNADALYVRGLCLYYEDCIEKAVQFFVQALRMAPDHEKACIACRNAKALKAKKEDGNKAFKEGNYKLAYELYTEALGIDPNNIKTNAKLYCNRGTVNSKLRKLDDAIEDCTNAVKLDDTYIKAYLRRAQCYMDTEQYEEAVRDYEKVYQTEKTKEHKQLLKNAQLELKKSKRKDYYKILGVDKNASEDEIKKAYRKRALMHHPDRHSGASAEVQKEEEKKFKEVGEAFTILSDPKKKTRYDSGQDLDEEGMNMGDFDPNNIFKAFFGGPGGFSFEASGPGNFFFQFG
UniProt Q08495: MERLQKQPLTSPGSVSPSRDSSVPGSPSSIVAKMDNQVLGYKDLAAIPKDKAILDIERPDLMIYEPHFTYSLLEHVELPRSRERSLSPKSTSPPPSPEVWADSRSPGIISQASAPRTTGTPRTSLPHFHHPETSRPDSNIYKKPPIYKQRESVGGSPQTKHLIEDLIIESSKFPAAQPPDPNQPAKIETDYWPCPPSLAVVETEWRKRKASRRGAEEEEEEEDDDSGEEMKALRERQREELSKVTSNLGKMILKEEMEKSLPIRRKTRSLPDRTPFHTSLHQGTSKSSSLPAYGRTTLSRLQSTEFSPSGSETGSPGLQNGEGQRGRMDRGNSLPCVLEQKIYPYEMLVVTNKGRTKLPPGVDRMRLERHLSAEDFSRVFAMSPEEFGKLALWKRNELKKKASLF

Key:
Test in all cases: log2 fold change, soluble protein after heating vs DMSO (PISA); higher = thermal stabilisation; K562 lysate, 10 uM; active = over 0.2 and 3.5 SD of the protein, either way, in both replicates (recomputed)
lapatinib = compound: CS(=O)(=O)CCNCc1ccc(-c2ccc3ncnc(Nc4ccc(OCc5cccc(F)c5)c(Cl)c4)c3c2)o1 [lapatinib]
Outline: (§1)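 To prepare the extract, K562 pellets were dounce-homogenised in PBS pH 7.4 with 1 mM MgCl2, giving crude material at 1 mg/mL protein. This was treated with 10 μM compound for 30 min, then heated in aliquots for 3 min over 48°C-58°C before pooling and addition of NP-40 to 0.5% at 4°C. Centrifugation at 21,000xg for 90 min left soluble protein in the supernatant, which TMTpro 16plex LC-MS/MS quantified with equalised channel sums. Results are log-two fold changes in thermal stability compared with solvent controls, from duplicates.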

pictilisib = compound: CS(=O)(=O)N1CCN(Cc2cc3nc(-c4cccc5[nH]ncc45)nc(N4CCOCC4)c3s2)CC1 [pictilisib]
Outline: as §1

crizotinib = compound: C[C@@H](Oc1cc(-c2cnn(C3CCNCC3)c2)cnc1N)c1c(Cl)ccc(F)c1Cl [crizotinib]
Outline: as §1

[1] = compound: C[C@H](C1=CC=C(C=C1)C(=O)NC2=C3C=CNC3=NC=C2)N
Outline: as §1

duvelisib = compound: C[C@H](Nc1ncnc2nc[nH]c12)c1cc2cccc(Cl)c2c(=O)n1-c1ccccc1 [duvelisib]
Outline: as §1

gandotinib = compound: Cc1cc(Nc2cc(CN3CCOCC3)c3nc(C)c(Cc4ccc(Cl)cc4F)n3n2)n[nH]1 [gandotinib]
Outline: as §1

tozasertib = compound: Cc1cc(Nc2cc(N3CCN(C)CC3)nc(Sc3ccc(NC(=O)C4CC4)cc3)n2)n[nH]1 [tozasertib]
Outline: as §1

doramapimod = compound: Cc1ccc(-n2nc(C(C)(C)C)cc2NC(=O)Nc2ccc(OCCN3CCOCC3)c3ccccc23)cc1 [doramapimod]
Outline: as §1

bafetinib = compound: Cc1ccc(NC(=O)c2ccc(CN3CC[C@H](N(C)C)C3)c(C(F)(F)F)c2)cc1Nc1nccc(-c2cncnc2)n1 [bafetinib]
Outline: as §1

[2] = compound: Cc1cccc(CC(=O)N2CCc3c2ccc(-c2cn(C)c4ncnc(N)c24)c3F)n1
Outline: as §1

nilotinib = compound: Cc1cn(-c2cc(NC(=O)c3ccc(C)c(Nc4nccc(-c5cccnc5)n4)c3)cc(C(F)(F)F)c2)cn1 [nilotinib]
Outline: as §1

[3] = compound: Cc1nc(Nc2n[nH]c3c2CN(C(=O)N[C@H](CN(C)C)c2ccccc2)C3(C)C)c2sccc2n1
Outline: as §1

dasatinib = compound: Cc1nc(Nc2ncc(C(=O)Nc3c(C)cccc3Cl)s2)cc(N2CCN(CCO)CC2)n1 [dasatinib]
Outline: as §1

[4] = compound: Cc1ncc(-c2ccnc(Nc3ccc(S(C)(=O)=O)cc3)n2)n1C(C)C
Outline: as §1

[5] = compound: Cn1cc(-c2ccc3c(c2)CCN3C(=O)Cc2cccc(C(F)(F)F)c2)c2c(N)ncnc21
Outline: as §1

quisinostat = compound: Cn1cc(CNCC2CCN(c3ncc(C(=O)NO)cn3)CC2)c2ccccc21 [quisinostat]
Outline: as §1

tipifarnib = compound: Cn1cncc1[C@@](N)(c1ccc(Cl)cc1)c1ccc2c(c1)c(-c1cccc(Cl)c1)cc(=O)n2C [tipifarnib]
Outline: as §1

[6] = compound: NC(=O)Nc1cc(-c2cccc(F)c2)sc1C(=O)N[C@H]1CCCNC1
Outline: as §1

[7] = compound: NC(=O)c1cnc(N[C@@H]2CCCC[C@@H]2N)nc1Nc1cccc(-n2nccn2)c1
Outline: as §1

[8] = compound: NC1(c2ccc(-c3nc4ccn5c(=O)[nH]nc5c4cc3-c3ccccc3)cc2)CCC1
Outline: as §1

Measured: log2 fold change

DNAJC3 (UniProt Q13217)
inactive: lapatinib 0.01 | pictilisib -0.015 | crizotinib 0.047 | [1] 0.001 | duvelisib 0.046 | gandotinib 0.012 | tozasertib 0.014 | doramapimod -0.064 | bafetinib -0.002 | [2] -0.014 | nilotinib 0.029 | [3] -0.019 | dasatinib 0.074 | [4] 0.008 | [5] 0.023 | quisinostat 0.11 | tipifarnib -0.085 | [6] -0.055 | [7] 0.012 | [8] 0.005

DHRS11 (UniProt Q6UWP2)
inactive: lapatinib -0.017 | pictilisib 0.014 | crizotinib 0.024 | [1] -0.035 | duvelisib 0.024 | gandotinib -0.007 | tozasertib 0.028 | doramapimod -0.032 | bafetinib -0.051 | [2] -0.02 | nilotinib 0.058 | [3] 0.017 | dasatinib -0.018 | [4] 0.008 | [5] 0.03 | quisinostat 0.024 | tipifarnib 0.002 | [6] 0.037 | [7] 0.002 | [8] 0

DHRS7B (UniProt Q6IAN0)
inactive: lapatinib -0.087 | pictilisib 0.009 | crizotinib -0.072 | [1] -0.041 | duvelisib 0.012 | gandotinib 0.161 | tozasertib -0.027 | doramapimod 0 | bafetinib 0.019 | [2] 0.09 | nilotinib -0.012 | [3] -0.01 | dasatinib 0.116 | [4] -0.006 | [5] 0.039 | quisinostat 0.018 | tipifarnib 0.065 | [6] 0.026 | [7] 0.005 | [8] -0.026

DNAJC19 (UniProt Q96DA6)
inactive: lapatinib -0.042 | pictilisib -0.016 | crizotinib -0.047 | [1] -0.005 | duvelisib -0.03 | gandotinib -0.013 | tozasertib 0.02 | doramapimod 0.035 | bafetinib -0.038 | [2] 0.002 | nilotinib -0.012 | [3] -0.015 | dasatinib -0.017 | [4] 0.012 | [5] -0.014 | quisinostat 0.011 | tipifarnib 0.019 | [6] 0.011 | [7] -0.012 | [8] 0

DGKA (UniProt P23743)
inactive: lapatinib -0.014 | pictilisib 0.092 | [1] 0.045 | duvelisib 0.125 | gandotinib -0.143 | tozasertib 0.021 | bafetinib -0.211 | [2] -0.054 | nilotinib 0.041 | [3] 0.031 | dasatinib 0.272 | [4] -0.03 | [5] 0.206 | tipifarnib -0.072 | [7] 0.085

DLD (UniProt P09622)
inactive: lapatinib -0.003 | pictilisib 0.009 | crizotinib -0.001 | [1] -0.067 | duvelisib -0.012 | gandotinib 0.047 | tozasertib -0.016 | doramapimod -0.001 | bafetinib 0.005 | [2] 0.012 | nilotinib 0.02 | [3] 0.001 | dasatinib 0.003 | [4] 0.011 | [5] -0.022 | quisinostat -0.014 | tipifarnib 0.003 | [6] -0.015 | [7] -0.009 | [8] 0.005

DNM1 (UniProt Q05193)
inactive: lapatinib -0.006 | pictilisib -0.084 | crizotinib 0.122 | [1] -0.124 | duvelisib -0.293 | gandotinib -0.007 | doramapimod -0.01 | bafetinib 0.077 | [2] 0.074 | nilotinib -0.093 | [3] -0.072 | dasatinib -0.089 | [4] 0.015 | [5] 0.137 | quisinostat -0.148 | tipifarnib -0.045 | [6] -0.045 | [7] -0.018 | [8] -0.069

DNAJB9 (UniProt Q9UBS3)
inactive: lapatinib 0.013 | crizotinib -0.032 | duvelisib -0.018 | doramapimod 0.121 | dasatinib -0.173 | [5] 0.097 | quisinostat 0.04 | [6] 0.009 | [7] -0.093 | [8] -0.007

DHX33 (UniProt Q9H6R0)
inactive: lapatinib -0.013 | [1] -0.087 | duvelisib 0.004 | gandotinib 0.17 | [2] -0.007 | dasatinib 0.049 | [5] 0.059 | [7] -0.006

DHRS13 (UniProt Q6UX07)
inactive: lapatinib 0.048 | pictilisib -0.052 | crizotinib -0.048 | duvelisib 0.185 | doramapimod 0.087 | bafetinib -0.113 | nilotinib 0.133 | [3] 0.385 | dasatinib 0.048 | [4] -0.142 | [5] 0.142 | quisinostat 0.078 | tipifarnib -0.223 | [6] -0.011 | [7] -0.08 | [8] -0.121

DGKQ (UniProt P52824)
inactive: lapatinib -0.069 | [1] 0.059 | duvelisib 0.097 | gandotinib -0.031 | tozasertib 0 | [2] -0.015 | nilotinib -0.074 | [3] -0.083 | dasatinib 0.016 | [4] -0.102 | [5] 0.056 | tipifarnib -0.156 | [7] -0.029 | [8] -0.352

DIAPH1 (UniProt H9KV28)
inactive: lapatinib 0.003 | pictilisib 0.087 | crizotinib -0.047 | [1] -0.039 | gandotinib 0.199 | tozasertib 0.049 | doramapimod 0.099 | bafetinib -0.171 | [2] 0.158 | nilotinib -0.027 | [3] -0.122 | [4] 0.053 | quisinostat -0.093 | tipifarnib -0.051 | [6] -0.001 | [7] 0.05 | [8] 0.111

DIPK2A (UniProt Q8NDZ4)
inactive: lapatinib -0.143 | pictilisib 0.03 | crizotinib -0.13 | [1] -0.163 | duvelisib -0.004 | gandotinib -0.186 | tozasertib 0.122 | doramapimod 0.011 | bafetinib -0.068 | [2] 0.105 | dasatinib -0.069 | [5] -0.037 | quisinostat 0.053 | [6] -0.022 | [7] 0.062 | [8] -0.071

DNAJB1 (UniProt M0R128)
inactive: lapatinib -0.276 | pictilisib 0.156 | [1] -0.415 | gandotinib 0.339 | bafetinib -0.639 | [2] 0.528 | nilotinib -0.133 | [3] 0.128 | [4] -0.074 | tipifarnib -0.02 | [7] 0.189 | [8] -0.303

DONSON (UniProt Q9NYP3)
inactive: lapatinib -0.012 | pictilisib -0.019 | crizotinib -0.012 | [1] -0.32 | duvelisib 0.007 | gandotinib 0.196 | doramapimod 0.07 | bafetinib -0.033 | [2] -0.157 | nilotinib 0.035 | [3] 0.004 | dasatinib -0.031 | [4] 0.066 | [5] -0.035 | quisinostat -0.051 | tipifarnib -0.024 | [6] -0.003 | [7] -0.022 | [8] 0.082

DNHD1 (UniProt Q96M86)
inactive: lapatinib -0.05 | pictilisib -0.095 | crizotinib -0.004 | doramapimod -0.015 | bafetinib -0.42 | quisinostat -0.211 | [6] -0.022 | [7] 0.094 | [8] -0.024

DNPEP (UniProt B9ZVU2)
inactive: lapatinib -0.038 | crizotinib 0.042 | duvelisib -0.048 | tozasertib 0.015 | doramapimod -0.071 | nilotinib 0.07 | [3] 0.005 | dasatinib -0.009 | [4] -0.001 | [5] 0.038 | quisinostat 0.087 | tipifarnib 0.014 | [6] 0.044 | [7] -0.004 | [8] -0.05

DNASE1L1 (UniProt P49184)
inactive: lapatinib -0.156 | [1] -0.042 | gandotinib -0.047 | [2] 0.079 | nilotinib 0.308 | [3] -0.299 | [4] -0.362 | tipifarnib -0.221 | [7] -0.275

DNMT3A (UniProt Q9Y6K1)
inactive: lapatinib -0.133 | [1] 0.142 | gandotinib -0.17 | [2] -0.229 | [7] -0.016 | [8] -0.202

Copied from the results shown (two entries):
DLD (UniProt P09622)
inactive: lapatinib -0.003 | pictilisib 0.009 | crizotinib -0.001 | [1] -0.067 | duvelisib -0.012 | gandotinib 0.047 | tozasertib -0.016 | doramapimod -0.001 | bafetinib 0.005 | [2] 0.012 | nilotinib 0.02 | [3] 0.001 | dasatinib 0.003 | [4] 0.011 | [5] -0.022 | quisinostat -0.014 | tipifarnib 0.003 | [6] -0.015 | [7] -0.009 | [8] 0.005

DNM1 (UniProt Q05193)
inactive: lapatinib -0.006 | pictilisib -0.084 | crizotinib 0.122 | [1] -0.124 | duvelisib -0.293 | gandotinib -0.007 | doramapimod -0.01 | bafetinib 0.077 | [2] 0.074 | nilotinib -0.093 | [3] -0.072 | dasatinib -0.089 | [4] 0.015 | [5] 0.137 | quisinostat -0.148 | tipifarnib -0.045 | [6] -0.045 | [7] -0.018 | [8] -0.069

Remaining list, next part.

DPAGT1 (UniProt Q9H3H5)
inactive: lapatinib -0.027 | pictilisib 0.044 | crizotinib 0.007 | [1] -0.142 | gandotinib 0.112 | doramapimod 0.031 | bafetinib 0.062 | [2] 0.086 | nilotinib -0.037 | [3] 0.01 | [4] -0.033 | quisinostat -0.036 | tipifarnib -0.06 | [6] 0.001 | [7] 0.004 | [8] 0.044

DGCR2 (UniProt P98153)
inactive: lapatinib 0.154 | [1] -0.138 | duvelisib 0.007 | gandotinib 0.005 | tozasertib -0.201 | [2] 0.109 | nilotinib 0.022 | [3] -0.082 | dasatinib 0.075 | [4] -0.009 | [5] 0 | tipifarnib -0.24 | [7] -0.061 | [8] -0.094

DNAJC7 (UniProt Q99615)
inactive: lapatinib 0.078 | pictilisib 0.065 | crizotinib -0.045 | [1] -0.017 | duvelisib -0.041 | gandotinib 0.076 | tozasertib -0.005 | doramapimod 0.202 | bafetinib -0.041 | [2] -0.03 | nilotinib -0.001 | [3] 0.008 | dasatinib -0.028 | [4] -0.015 | [5] 0.011 | quisinostat -0.051 | tipifarnib -0.056 | [6] -0.021 | [7] 0.003 | [8] 0.025

DMTN isoform 2 (UniProt Q08495)
inactive: lapatinib -0.061 | crizotinib 0.039 | [1] -0.018 | duvelisib -0.027 | gandotinib -0.06 | tozasertib -0.069 | doramapimod 0.022 | [2] 0.035 | dasatinib -0.032 | [5] -0.143 | quisinostat -0.126 | [6] -0.076 | [7] 0.014 | [8] -0.041

DOP1B (UniProt Q9Y3R5)
inactive: lapatinib -0.067 | crizotinib -0.076 | [1] 0.038 | gandotinib 0.121 | doramapimod 0.15 | [2] -0.048 | quisinostat -0.346 | [6] -0.015 | [7] 0.032
